PubChem BioAssay AID1259278 | Sanger Institute – 2017
Shown is one part, drawn at random, of 160 deposited reagents. In the full data, 54 (34%) are marked active. 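Each call rests on one siRNA duplex in one cell line; gene-level support needs several duplexes and lines.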 Reagents against one gene are numbered here. Further read-outs or replicates are left out here. The record does not give: the amount of reagent, the time to read-out.

Purpose: 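Kinase knock-downs that raise colorectal cancer cell killing by anti-cancer drugs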 (follow-up of hits)
System: human HT55 colorectal cancer cells
Reagent: single siRNA against human genes
Conditions: anchor drugs added to knock-down cells: cetuximab 5 µg/ml, trametinib 10 nM or BYL719 1 µM, against DMSO vehicle; chosen to hurt viability little alone
Read-out: 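Per-replicate viability normalised to control pool 2 (non-targeting) then averaged, and for every anchor drug a computed synergy score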
Reading the numbers: synergy score with BYL719 and synergy score with cetuximab and synergy score with trametinib: higher = stronger combined killing with knock-down
Active means: 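a synergy score over 0.10 with BYL719, cetuximab or trametinib makes the knock-down a hit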
Calls: active = synergy with an anchor drug; inactive = no synergy

For PAK1 #1 the deposit lists synergy score with BYL719 = 0.134; synergy score with cetuximab 0.182; synergy score with trametinib 0.158; active.
After knock-down of PAK1 #2, the record shows synergy score with BYL719 = -0.00705; synergy score with cetuximab 0.0774; synergy score with trametinib 0.132; active.
With knock-down of PAK1 #3, the screen gave synergy score with BYL719 = -0.0856; synergy score with cetuximab -0.0473; synergy score with trametinib 0.0906; inactive.
Silencing of PAK1 #4 resulted in: synergy score with BYL719 = -0.399; synergy score with cetuximab -0.01; synergy score with trametinib -0.178; inactive.
Silencing of PFKFB3 #1 came out at: synergy score with BYL719 = -0.0479; synergy score with cetuximab 0.0735; synergy score with trametinib -0.0947; inactive.
PFKFB3 #2 scored synergy score with BYL719 = -0.00962; synergy score with cetuximab 0.0141; synergy score with trametinib -0.0104; inactive.
With knock-down of PFKFB3 #3, the screen gave synergy score with BYL719 = -0.251; synergy score with cetuximab 0.0314; synergy score with trametinib -0.144; inactive.
With knock-down of PFKFB3 #4 the results were synergy score with BYL719 = -0.0657; synergy score with cetuximab 0.00886; synergy score with trametinib -0.0812; inactive.
Depletion of MAP3K8 #1 resulted in: synergy score with BYL719 = -0.0242; synergy score with cetuximab 0.124; synergy score with trametinib 0.25; active.
MAP3K8 #2 showed synergy score with BYL719 = -0.0543; synergy score with cetuximab 0.0123; synergy score with trametinib 0.00784; inactive.
With knock-down of MAP3K8 #3, the record shows synergy score with BYL719 = -0.132; synergy score with cetuximab -0.212; synergy score with trametinib -0.0242; inactive.
With knock-down of MAP3K8 #4 the results were synergy score with BYL719 = -0.0181; synergy score with cetuximab 0.116; synergy score with trametinib 0.104; active.

2 entries from above, limited to “synergy score with BYL719”:
MAP3K8 #3	-0.132
MAP3K8 #4	-0.0181
